According to US20130184224A1:
No constants are given. Whether binding was seen depends on the method and setting. Binding seen in cells or lysates may run through a third protein. Some results given as binding are weak or reduced against the parent protein; the word gives no strength.

Chains of the proteins cited; added tags and fusions are not shown. Lines headed by an entry give the natural chain unless they say otherwise; changes in a name come on top. A line that says so, or that is headed by a name, gives the form on record, which may keep a tag or linker.
UniProt P10275: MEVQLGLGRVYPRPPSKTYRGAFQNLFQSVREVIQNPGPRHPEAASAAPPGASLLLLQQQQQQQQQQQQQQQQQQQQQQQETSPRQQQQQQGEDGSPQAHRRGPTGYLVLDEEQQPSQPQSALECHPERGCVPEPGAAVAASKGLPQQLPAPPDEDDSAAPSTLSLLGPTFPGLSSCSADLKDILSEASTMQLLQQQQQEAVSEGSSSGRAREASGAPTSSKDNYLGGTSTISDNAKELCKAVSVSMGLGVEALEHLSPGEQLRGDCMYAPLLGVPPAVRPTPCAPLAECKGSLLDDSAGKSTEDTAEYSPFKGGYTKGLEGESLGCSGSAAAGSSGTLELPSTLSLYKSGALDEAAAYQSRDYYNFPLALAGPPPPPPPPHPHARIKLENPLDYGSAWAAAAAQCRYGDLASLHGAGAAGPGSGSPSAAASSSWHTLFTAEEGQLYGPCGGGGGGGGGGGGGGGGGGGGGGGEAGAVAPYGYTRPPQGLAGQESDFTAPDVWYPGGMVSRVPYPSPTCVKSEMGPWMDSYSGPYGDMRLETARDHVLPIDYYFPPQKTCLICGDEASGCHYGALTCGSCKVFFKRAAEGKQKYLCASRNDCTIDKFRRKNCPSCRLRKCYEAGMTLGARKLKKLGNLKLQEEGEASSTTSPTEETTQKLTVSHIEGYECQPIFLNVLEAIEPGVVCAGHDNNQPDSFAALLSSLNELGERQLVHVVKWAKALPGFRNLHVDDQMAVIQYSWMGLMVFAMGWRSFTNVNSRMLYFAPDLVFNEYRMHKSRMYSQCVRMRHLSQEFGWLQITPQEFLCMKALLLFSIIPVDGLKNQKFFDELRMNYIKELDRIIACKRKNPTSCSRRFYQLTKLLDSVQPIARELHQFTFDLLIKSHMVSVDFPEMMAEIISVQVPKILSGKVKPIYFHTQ
FLAG-tagged AR (P10275, form named): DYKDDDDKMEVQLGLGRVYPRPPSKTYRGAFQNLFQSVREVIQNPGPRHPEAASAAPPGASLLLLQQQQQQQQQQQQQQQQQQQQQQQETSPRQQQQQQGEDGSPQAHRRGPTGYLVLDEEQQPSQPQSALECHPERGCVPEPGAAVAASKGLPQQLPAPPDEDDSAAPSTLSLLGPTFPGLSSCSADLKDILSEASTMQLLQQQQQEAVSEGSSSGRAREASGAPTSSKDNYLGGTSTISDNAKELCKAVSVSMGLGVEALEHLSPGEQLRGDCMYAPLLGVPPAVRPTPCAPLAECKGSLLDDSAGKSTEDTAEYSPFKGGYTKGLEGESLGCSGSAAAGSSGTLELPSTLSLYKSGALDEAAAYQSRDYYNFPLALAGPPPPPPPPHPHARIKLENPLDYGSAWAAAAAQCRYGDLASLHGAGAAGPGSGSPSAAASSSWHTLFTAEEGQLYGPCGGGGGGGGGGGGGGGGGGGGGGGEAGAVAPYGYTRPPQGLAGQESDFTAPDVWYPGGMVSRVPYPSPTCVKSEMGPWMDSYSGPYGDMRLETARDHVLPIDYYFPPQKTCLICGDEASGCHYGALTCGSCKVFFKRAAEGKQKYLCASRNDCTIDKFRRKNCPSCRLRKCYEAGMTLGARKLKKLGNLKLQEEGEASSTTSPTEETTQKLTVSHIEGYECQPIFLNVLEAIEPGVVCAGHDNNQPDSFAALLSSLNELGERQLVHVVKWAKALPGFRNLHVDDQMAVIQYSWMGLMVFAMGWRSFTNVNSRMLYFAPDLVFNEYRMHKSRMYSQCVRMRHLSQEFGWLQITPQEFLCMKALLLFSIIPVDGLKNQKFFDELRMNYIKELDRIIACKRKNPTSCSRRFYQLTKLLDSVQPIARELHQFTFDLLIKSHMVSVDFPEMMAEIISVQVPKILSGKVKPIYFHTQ
UniProt Q92466: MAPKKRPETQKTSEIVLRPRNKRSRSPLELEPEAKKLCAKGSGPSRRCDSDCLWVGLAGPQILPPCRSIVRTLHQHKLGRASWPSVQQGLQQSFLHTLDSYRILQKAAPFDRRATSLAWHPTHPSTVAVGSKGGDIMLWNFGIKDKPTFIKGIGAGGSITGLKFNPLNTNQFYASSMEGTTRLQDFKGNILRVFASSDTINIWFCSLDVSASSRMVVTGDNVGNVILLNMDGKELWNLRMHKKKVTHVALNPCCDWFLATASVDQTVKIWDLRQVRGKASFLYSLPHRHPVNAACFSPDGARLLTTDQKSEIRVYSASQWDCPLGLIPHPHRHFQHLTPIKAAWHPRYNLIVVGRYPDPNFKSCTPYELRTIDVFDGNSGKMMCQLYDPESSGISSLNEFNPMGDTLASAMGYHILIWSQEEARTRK

Tests used:
[1] = target: His-AR fusion protein (UniProt P10275); test: reciprocal pull-down (Ni-NTA / GST) of purified His-AR and GST-DDB2, Western blot with anti-His and anti-GST
[2] = target: His-AR fusion protein (UniProt P10275); test: pull-down of purified proteins, Western blot
[3] = target: His-AR fusion protein (UniProt P10275); test: summary of the pull-down of purified proteins
[4] = target: FLAG-tagged AR (UniProt P10275); test: reciprocal co-immunoprecipitation (anti-FLAG / anti-Myc) from co-transfected 293T cells, Western blot
[5] = target: FLAG-tagged AR (UniProt P10275); test: co-immunoprecipitation from transfected 293T cells, Western blot

Row | binding [1] | binding [2] | binding [3] | binding [4] | binding [5] | Substance
1 | binds | binds | binds | – | – | GST-DDB2 fusion protein (from UniProt Q92466 1-427)
2 | – | – | – | binds | binds | Myc-tagged DDB2 (from UniProt Q92466 1-427)
